These are yes or no findings as the source states them, for the method shown. Some results given as binding are weak or reduced against the parent protein; the word gives no strength.
B1: 9H04 (hybridoma) (antibody, V domains shown)
VH: QVQLVESGGGLVKPGGSLRLSCAASRFTLSDYYMTWIRQAPGKGLEWVSYISSSGNTIYYADSVKGRFTISRDNAKNSLYLQMNSLRAEDTAVYYCARDLSGSYWDYYYGMDVWGQGTTVTVSS
VL: AIQLTQSPSSLSTSVGDRVTIACRASQGINNALAWYQQKPGKAPKLLIYDASSLESGVPSRFSGSGSGTDFTLTISSLQPEDFATYYCQQFNSYPRTFGQGTKVEIK
B2: 2D10 (hybridoma) (antibody, V domains shown)
VH: EVQLVESGGGLVQPGGSLRLSCAASGFTFSNYAMNWVRQAPGKGLEWVSTISGSGGATRYADSVKGRFTISRDNSRNTVYLQMNSLRVEDTAVFYCTKDRLIMATVRGPYYYGMDVWGQGTTVTVSS
VL: DIQMTQSPSSLSASVGDRVTITCRASQSISSYLNWYQQKPGKAPNLLIYAASSLQSGVPSRFSGSGSETDFTLTISSLQPEDFATYYCQQSHSVSFTFGPGTKVDIK
B3: 10A07 (hybridoma) (antibody, V domains shown)
VH: EVQLVESGGVLVQPGGSLRLSCAASGFTFSSYIMTWVRQAPGKGLEWVSGISGSGGGTYYADSMKGRFTISRDNSKNTLYLQMNSLRVEDTAVYYCAKDRLGPITLVRGGYYYGMDVWGQGTTVTVSS
VL: DIQMTQSPSSLSASVGDRVTITCRASQSISDYLNWYQQKPGKAPKFLIYAASSLQSGVPSRFSGSGSGTDFTLTVSSLQPEDFATYYCQQSYSTPRTFGQGTRVEIK

Sequences of proteins named here, by UniProt entry; tags and fusion partners are left off. A change or cut given only in a name is not applied to a line headed by its entry.
UniProt P23510: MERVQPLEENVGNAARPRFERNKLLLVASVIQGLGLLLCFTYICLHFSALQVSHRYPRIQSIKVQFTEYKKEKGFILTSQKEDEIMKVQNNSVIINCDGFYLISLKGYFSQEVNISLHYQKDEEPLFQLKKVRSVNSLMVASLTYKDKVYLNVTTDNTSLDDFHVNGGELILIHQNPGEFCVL

These binders were tested against Cell Expressed OX40L (CHO/MEF) (human) (UniProt P23510) (assay: flow cytometry on CHO-S cells expressing hOX40L (column FACS Binding)).

binding | Binder
binds | B1
binds | B2
binds | B3

— patent US20170002083A1
